According to article PMC4368717:
No constants are given. Whether binding was seen depends on the method and setting.

Chains of the proteins cited; added tags and fusions are not shown. Residues count along the entry.
UniProt P98088, residues 28-5654: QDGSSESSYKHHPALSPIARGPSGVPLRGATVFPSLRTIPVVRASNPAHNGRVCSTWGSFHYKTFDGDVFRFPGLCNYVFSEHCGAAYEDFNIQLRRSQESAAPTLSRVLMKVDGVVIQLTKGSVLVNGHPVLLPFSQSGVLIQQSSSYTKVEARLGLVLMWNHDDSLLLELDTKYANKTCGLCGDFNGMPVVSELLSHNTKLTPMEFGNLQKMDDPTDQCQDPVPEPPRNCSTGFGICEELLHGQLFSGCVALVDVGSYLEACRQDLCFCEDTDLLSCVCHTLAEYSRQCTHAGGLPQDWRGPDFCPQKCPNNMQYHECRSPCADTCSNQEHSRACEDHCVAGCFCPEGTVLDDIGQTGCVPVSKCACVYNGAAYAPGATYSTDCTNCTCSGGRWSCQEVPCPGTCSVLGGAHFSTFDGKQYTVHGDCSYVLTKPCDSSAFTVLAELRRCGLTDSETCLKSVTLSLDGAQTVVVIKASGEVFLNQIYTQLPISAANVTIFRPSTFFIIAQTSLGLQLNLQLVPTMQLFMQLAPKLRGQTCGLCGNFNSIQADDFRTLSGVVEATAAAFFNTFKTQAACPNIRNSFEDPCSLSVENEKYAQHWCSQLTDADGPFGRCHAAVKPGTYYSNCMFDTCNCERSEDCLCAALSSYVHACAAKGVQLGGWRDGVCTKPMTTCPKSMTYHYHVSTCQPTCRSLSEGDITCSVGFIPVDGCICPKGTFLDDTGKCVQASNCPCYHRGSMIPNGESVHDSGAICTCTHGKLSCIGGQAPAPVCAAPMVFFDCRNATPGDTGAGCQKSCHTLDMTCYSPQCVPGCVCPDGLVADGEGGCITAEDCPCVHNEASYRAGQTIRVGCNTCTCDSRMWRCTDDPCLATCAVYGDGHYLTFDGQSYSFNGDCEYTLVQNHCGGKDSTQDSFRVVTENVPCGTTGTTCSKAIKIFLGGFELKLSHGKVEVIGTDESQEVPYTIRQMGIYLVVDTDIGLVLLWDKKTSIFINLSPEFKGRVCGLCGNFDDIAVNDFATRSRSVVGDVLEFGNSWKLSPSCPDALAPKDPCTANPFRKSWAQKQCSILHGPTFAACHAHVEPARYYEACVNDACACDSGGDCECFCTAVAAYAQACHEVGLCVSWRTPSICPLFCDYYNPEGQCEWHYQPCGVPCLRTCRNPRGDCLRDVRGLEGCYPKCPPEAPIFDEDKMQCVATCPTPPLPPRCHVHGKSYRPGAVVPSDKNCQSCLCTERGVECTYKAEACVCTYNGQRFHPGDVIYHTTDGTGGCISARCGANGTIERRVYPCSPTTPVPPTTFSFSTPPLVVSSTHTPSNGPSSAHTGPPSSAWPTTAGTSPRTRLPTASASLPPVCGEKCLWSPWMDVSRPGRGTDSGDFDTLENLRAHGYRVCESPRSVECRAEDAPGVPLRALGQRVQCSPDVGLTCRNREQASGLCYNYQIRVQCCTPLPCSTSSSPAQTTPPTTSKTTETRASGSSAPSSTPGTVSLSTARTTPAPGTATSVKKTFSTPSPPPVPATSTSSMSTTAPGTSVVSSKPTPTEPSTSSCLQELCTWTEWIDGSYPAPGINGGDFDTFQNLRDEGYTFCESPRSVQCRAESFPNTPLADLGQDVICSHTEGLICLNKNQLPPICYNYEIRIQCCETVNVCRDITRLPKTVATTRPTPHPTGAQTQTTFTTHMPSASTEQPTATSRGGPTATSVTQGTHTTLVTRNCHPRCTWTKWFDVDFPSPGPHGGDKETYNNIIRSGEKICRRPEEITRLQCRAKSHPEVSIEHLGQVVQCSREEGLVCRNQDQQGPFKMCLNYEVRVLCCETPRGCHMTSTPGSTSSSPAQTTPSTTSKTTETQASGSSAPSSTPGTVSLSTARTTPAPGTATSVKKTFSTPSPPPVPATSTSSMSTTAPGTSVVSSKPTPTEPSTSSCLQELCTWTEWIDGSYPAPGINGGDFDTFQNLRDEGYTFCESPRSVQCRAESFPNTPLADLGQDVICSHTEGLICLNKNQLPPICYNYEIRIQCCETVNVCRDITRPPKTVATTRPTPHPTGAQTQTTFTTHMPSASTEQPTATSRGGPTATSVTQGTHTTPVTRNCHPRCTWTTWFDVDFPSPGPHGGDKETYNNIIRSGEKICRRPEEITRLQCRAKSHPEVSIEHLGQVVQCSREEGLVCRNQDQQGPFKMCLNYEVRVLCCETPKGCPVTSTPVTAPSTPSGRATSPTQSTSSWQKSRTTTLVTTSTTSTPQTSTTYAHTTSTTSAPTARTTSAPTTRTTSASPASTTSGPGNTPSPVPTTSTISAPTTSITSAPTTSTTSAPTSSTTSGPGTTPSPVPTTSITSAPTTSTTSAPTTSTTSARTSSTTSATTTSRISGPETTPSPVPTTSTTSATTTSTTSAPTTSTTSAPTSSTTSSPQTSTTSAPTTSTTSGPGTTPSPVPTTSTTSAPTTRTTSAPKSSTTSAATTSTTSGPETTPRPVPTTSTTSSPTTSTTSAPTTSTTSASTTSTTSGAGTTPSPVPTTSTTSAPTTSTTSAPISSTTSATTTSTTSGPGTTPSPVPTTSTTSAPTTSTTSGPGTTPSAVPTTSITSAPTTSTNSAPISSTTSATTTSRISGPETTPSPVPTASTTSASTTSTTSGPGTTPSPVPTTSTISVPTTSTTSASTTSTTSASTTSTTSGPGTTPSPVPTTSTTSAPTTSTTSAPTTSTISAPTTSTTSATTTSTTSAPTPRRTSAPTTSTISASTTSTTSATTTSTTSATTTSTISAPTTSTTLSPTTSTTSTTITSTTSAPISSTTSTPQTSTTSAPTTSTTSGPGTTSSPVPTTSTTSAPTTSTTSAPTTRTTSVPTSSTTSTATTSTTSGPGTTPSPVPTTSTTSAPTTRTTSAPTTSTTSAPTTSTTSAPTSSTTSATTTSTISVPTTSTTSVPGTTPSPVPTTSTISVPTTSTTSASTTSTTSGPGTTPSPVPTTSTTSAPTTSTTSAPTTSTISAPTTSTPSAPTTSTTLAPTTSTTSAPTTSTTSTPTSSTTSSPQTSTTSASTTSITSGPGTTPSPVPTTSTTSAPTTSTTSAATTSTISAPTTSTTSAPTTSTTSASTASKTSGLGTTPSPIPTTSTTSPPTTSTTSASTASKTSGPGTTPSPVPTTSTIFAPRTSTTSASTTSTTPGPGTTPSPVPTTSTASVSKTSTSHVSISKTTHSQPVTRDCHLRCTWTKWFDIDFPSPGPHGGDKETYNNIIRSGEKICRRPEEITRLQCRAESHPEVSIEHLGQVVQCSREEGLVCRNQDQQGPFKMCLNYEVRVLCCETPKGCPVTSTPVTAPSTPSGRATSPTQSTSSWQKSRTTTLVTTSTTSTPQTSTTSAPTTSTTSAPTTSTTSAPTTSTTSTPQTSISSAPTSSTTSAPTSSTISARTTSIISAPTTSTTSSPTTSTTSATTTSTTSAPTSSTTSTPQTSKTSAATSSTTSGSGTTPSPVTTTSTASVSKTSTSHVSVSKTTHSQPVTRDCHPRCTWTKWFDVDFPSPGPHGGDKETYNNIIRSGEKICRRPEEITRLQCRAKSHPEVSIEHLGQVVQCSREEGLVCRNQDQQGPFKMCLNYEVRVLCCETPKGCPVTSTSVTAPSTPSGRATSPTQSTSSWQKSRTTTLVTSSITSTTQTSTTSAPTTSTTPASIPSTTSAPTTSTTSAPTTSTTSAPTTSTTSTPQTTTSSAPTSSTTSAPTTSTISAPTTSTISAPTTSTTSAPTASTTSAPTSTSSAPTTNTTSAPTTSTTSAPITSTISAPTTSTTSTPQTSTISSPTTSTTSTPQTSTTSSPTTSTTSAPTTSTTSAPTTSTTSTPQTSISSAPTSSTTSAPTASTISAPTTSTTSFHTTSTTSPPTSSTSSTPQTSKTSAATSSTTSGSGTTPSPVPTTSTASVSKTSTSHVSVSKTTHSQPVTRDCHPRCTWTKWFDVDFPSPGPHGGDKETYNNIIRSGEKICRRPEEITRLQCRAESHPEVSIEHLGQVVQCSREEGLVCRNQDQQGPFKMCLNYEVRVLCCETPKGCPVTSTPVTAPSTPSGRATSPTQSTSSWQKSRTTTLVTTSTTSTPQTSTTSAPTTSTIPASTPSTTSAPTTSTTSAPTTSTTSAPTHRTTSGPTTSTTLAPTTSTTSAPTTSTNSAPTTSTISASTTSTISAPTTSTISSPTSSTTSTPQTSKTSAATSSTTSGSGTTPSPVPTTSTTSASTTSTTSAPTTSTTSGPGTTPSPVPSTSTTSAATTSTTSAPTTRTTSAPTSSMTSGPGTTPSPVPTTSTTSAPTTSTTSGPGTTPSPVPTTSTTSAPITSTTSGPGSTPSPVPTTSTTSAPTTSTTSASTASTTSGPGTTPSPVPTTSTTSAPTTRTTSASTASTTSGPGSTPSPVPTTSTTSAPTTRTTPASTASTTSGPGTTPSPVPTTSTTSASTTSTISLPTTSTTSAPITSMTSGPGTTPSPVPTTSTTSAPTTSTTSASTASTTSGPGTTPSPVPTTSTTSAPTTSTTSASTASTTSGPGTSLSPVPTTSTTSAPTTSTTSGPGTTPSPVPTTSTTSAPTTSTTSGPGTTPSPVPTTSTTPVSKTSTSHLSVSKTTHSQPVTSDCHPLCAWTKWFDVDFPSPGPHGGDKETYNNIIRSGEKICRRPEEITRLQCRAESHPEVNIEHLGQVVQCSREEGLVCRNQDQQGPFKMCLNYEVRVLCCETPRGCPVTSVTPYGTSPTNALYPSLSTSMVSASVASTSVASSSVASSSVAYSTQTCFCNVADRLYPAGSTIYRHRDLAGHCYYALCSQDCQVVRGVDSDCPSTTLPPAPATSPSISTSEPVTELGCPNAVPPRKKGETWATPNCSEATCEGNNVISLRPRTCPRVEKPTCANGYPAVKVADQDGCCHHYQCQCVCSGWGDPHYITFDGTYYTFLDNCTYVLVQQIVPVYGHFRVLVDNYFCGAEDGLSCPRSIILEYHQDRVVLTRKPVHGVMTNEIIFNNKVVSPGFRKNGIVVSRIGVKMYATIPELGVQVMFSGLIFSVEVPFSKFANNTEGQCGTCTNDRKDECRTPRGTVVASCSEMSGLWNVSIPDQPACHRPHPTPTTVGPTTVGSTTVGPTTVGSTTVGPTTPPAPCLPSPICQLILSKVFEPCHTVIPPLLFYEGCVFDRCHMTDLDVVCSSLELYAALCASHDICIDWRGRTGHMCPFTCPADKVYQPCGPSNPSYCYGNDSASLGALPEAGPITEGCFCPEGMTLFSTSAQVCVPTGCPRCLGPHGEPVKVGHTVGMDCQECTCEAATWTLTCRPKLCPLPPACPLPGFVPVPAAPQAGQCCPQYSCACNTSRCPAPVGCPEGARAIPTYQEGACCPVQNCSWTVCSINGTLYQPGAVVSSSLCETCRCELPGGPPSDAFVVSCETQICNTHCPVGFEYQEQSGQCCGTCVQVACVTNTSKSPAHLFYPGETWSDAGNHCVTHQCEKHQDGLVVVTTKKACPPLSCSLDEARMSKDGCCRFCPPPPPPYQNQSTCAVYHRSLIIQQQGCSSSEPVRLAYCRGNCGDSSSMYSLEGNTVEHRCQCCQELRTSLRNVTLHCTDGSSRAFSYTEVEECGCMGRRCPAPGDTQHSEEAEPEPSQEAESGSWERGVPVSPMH
UniProt Q8TAX7, residues 23-377: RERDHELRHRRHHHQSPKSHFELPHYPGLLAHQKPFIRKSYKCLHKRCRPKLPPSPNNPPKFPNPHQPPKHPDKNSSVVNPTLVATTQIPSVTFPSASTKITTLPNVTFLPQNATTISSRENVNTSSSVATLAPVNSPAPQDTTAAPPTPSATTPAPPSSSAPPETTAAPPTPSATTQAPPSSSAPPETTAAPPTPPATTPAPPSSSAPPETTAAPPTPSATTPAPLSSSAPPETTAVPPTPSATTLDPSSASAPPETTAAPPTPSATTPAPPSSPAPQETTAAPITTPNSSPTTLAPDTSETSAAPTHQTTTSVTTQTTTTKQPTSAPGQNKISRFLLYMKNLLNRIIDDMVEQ

Target: MUC5AC in the mucus layer on HT29-MTX cells (human (endogenous in HT29-MTX)) (UniProt P98088)
Test: incubation of saliva with cell layers, western blot of cell homogenates; 1 ml whole mouth saliva on HT29 or HT29-MTX cell layers (day 4, 8, 16), 20 minutes or 1 hour at 37°C, PBS wash, cells homogenised in RIPA buffer, immunoblot

Substance: salivary MUC7 (from UniProt Q8TAX7 23-377)
- binding: no binding
